In publication PMC4046148:
These are yes or no findings as the source states them, for the method shown. Binding seen in cells or lysates may run through a third protein. Some binding calls cover weakened binding; strength is not graded here.

The chains behind the UniProt entries cited, without tags or fusion partners.
UniProt Q00987: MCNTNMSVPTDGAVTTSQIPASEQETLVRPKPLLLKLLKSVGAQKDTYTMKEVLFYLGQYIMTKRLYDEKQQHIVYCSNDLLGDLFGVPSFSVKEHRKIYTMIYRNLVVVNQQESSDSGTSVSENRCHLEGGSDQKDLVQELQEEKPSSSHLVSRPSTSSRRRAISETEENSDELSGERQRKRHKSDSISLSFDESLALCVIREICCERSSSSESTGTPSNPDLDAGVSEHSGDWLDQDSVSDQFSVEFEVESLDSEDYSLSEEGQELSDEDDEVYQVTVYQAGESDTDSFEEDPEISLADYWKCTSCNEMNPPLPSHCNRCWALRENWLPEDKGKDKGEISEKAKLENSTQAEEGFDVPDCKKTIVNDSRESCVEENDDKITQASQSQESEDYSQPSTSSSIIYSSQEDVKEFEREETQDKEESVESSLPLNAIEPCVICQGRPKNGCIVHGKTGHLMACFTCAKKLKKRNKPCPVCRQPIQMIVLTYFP

Target: MDM2 (human (endogenous in HepG2/As and SMMC7721/As)) (UniProt Q00987)
Assay: co-IP; endogenous proteins of arsenic trioxide resistant HCC cells, untreated or treated with 2 μM arsenic trioxide for 24 h; immunoprecipitated with an anti-MDM2 antibody, immunoblotted with anti-MDM2 and anti-p73 antibodies

binding: binds
B1: p73 (protein, UniProt O15350 1-636)
chain: MAQSTATSPDGGTTFEHLWSSLEPDSTYFDLPQSSRGNNEVVGGTDSSMDVFHLEGMTTSVMAQFNLLSSTMDQMSSRAASASPYTPEHAASVPTHSPYAQPSSTFDTMSPAPVIPSNTDYPGPHHFEVTFQQSSTAKSATWTYSPLLKKLYCQIAKTCPIQIKVSTPPPPGTAIRAMPVYKKAEHVTDVVKRCPNHELGRDFNEGQSAPASHLIRVEGNNLSQYVDDPVTGRQSVVVPYEPPQVGTEFTTILYNFMCNSSCVGGMNRRPILIIITLEMRDGQVLGRRSFEGRICACPGRDRKADEDHYREQQALNESSAKNGAASKRAFKQSPPAVPALGAGVKKRRHGDEDTYYLQVRGRENFEILMKLKESLELMELVPQPLVDSYRQQQQLLQRPSHLQPPSYGPVLSPMNKVHGGMNKLPSVNQLVGQPPPHSSAATPNLGPVGPGMLNNHGHAVPANGEMSSSHSAQSMVSGSHCTPPPPYHADPSLVSFLTGLGCPNCIEYFTSQGLQSIYHLQNLTIEDLGALKIPEQYRMTIWRGLQDLKQGHDYSTAQQLLRSSNAATISIGGSGELQRQRVMEAVHFRVRHTITIPNRGGPGGGPDEWADFGFDLPDCKARKQPIKEEFTEAEIH
